These are yes or no findings as the source states them, for the method shown. In cells and extracts the contact can be indirect.
Tests used:
Assay in all cases: pull-down
[1] = target: AviHA-tagged p150^Glued N fragment (aa 1-490) (UniProt P28023)
[2] = target: GST-p150^Glued C (aa 490-1278) (UniProt P28023)
[3] = target: GST-p150^Glued C2 (aa 1049-1278) (UniProt P28023)

Sequences of proteins named here, by UniProt entry; tags and fusion partners are left off. A change or cut given only in a name is not applied to a line headed by its entry. A line that says so, or that is headed by a name, gives the form on record, which may keep a tag or linker. Residues count along the entry.
UniProt P28023: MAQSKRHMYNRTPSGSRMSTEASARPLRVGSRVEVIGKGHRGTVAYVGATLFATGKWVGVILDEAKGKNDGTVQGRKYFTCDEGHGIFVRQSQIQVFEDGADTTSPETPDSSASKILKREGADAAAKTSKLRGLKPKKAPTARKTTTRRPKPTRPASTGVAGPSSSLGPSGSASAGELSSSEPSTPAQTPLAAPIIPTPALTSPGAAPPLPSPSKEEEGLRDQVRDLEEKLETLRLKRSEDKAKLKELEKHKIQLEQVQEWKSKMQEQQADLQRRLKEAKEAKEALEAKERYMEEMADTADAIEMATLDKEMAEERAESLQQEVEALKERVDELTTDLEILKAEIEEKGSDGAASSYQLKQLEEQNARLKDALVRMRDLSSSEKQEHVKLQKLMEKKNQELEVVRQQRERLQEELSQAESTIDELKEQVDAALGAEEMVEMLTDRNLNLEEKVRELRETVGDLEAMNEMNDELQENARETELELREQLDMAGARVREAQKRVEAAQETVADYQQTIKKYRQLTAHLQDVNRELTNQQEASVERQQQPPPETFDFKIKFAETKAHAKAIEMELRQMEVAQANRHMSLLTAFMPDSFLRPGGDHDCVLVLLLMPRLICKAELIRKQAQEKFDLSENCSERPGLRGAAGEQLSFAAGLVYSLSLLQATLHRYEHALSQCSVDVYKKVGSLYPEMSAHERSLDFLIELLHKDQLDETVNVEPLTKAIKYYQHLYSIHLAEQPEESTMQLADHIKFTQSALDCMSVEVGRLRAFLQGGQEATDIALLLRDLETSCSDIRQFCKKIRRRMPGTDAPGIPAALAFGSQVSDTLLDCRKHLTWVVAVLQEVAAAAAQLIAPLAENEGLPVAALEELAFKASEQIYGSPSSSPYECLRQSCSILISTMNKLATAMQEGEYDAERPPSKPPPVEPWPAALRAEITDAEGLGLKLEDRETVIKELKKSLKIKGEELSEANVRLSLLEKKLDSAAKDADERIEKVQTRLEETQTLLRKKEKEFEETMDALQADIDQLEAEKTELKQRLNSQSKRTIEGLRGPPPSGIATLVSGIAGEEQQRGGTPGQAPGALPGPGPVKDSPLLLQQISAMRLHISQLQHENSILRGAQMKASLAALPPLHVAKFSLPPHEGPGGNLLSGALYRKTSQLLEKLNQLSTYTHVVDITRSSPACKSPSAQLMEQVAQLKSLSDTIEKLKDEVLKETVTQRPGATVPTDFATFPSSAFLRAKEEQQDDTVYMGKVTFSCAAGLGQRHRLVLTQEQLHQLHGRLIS
AviHA-tagged p150^Glued N fragment: residues 1-490 of P28023
GST-p150^Glued C: residues 490-1278 of P28023
GST-p150^Glued C2: residues 1049-1278 of P28023
UniProt P63010: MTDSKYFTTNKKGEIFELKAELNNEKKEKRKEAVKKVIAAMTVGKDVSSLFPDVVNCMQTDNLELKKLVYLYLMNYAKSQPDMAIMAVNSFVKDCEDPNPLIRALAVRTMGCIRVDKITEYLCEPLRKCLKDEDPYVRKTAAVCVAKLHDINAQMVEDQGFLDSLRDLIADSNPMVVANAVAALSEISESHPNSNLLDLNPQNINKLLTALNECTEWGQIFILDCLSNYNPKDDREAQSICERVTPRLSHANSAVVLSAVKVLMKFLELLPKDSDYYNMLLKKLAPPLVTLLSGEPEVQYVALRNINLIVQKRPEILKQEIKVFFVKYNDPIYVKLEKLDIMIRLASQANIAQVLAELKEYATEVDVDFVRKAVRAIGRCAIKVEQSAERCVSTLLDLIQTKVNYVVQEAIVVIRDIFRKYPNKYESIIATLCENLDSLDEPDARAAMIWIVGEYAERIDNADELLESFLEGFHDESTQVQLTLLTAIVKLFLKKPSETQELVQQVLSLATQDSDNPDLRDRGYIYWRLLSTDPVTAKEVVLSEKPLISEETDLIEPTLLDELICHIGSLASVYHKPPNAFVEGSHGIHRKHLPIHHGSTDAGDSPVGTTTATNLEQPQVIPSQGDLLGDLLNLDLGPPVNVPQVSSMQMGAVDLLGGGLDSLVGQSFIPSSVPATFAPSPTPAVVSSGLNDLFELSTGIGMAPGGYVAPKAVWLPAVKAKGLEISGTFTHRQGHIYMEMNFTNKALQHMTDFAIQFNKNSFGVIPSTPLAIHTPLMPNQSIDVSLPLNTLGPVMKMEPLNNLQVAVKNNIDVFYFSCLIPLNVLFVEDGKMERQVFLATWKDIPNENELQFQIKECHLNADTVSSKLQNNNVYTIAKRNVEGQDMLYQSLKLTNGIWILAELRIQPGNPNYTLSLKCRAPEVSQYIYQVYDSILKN

## His6-AP-2β appendage domain (from UniProt P63010) (domain or fragment)
[1]
  binding: no binding (tested: 0.2 mg/ml)
[2]
  binding: no binding
[3]
  binding: no binding
